This passage reports binding results from US20170128596A1, “Peptide-Based Compounds and Their Uses for Tumor Imaging and Targeting” (Klinikum rechts der lsar der Technischen Universitaet …, priority 2014, published 2017).

Sequences of proteins named here, by UniProt entry; tags and fusion partners are left off. Residues count along the entry.
UniProt Q61696, residues 2-641: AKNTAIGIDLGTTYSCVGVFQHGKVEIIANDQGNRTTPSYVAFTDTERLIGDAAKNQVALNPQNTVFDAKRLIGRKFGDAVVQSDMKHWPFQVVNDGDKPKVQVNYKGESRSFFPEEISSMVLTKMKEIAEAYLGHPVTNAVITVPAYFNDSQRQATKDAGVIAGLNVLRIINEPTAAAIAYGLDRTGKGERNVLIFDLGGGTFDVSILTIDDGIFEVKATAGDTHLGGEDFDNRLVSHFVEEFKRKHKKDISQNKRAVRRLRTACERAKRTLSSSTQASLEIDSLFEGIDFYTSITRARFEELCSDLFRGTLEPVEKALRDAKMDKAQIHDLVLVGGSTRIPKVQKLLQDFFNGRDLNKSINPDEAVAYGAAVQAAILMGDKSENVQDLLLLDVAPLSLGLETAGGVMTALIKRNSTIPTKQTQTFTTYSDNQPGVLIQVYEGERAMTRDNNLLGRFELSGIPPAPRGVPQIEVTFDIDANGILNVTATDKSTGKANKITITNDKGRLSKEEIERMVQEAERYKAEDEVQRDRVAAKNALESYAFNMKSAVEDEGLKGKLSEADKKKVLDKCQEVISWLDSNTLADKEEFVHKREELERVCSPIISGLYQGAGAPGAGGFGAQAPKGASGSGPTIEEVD

For assay [1], the target named is membrane-bound Heat shock protein 70 (Hsp70) on murine tumor cells (mouse) (UniProt Q61696). The experiment in a line: in vivo fluorescence imaging, Hsp70 wt versus Hsp70-/- (CRISPR/Cas9 ko) 4T1 mouse mammary tumors in the same mouse, 24 h after injection.
The target is the same in assay [2]. As to the kind of experiment: flow cytometry on viable cells from solid murine tumors. Background: A flow cytometer gives signals particle by particle.

Results are given in words; binding and its absence hold for the method and conditions named. Some binding calls cover weakened binding; strength is not graded here.

Regarding TKDNNLLGRFELSG (fluorescent label '680', identity and position not stated) [TPP[680]], the binding entry in assay [1] is “binds”.
Consider TKDNNLLGRFELSG (carboxyfluorescein label, position of attachment not stated) [carboxyfluorescein-conjugated Hsp70-tumor cell penetrating peptide TPP (TPP[CF])], for which the binding entry in assay [2] is “binds”.
